The target of the test is T1, TBC1D21 (bait of the co-IP and nano LC-MS/MS screen) (UniProt Q8IYX1).
T1 sequence: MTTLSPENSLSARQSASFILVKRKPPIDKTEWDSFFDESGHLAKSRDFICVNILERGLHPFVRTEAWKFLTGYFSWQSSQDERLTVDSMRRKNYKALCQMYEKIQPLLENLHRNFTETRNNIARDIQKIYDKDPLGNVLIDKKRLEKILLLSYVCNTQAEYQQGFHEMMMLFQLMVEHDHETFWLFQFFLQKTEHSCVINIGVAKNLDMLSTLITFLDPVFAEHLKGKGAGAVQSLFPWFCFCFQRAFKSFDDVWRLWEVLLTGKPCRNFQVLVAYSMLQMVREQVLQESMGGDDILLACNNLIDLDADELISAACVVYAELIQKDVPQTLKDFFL
Put plainly: affinity purification with mass spectrometry; co-IP of TBC1D21 followed by nano LC-MS/MS, as described previously (refs. 9, 10).

Results are given in words; binding and its absence hold for the method and conditions named. In cells and extracts the contact can be indirect. A yes stands for co-enrichment or nearness to the bait. Other partners may have been found.

Consider “Rap1 (found in the TBC1D21 co-IP by nano LC-MS/MS)”, for which the binding result was “binds”.
